{"sequences": {"note": "The chains behind the UniProt entries cited, without tags or fusion partners. Where a name states a change or a piece, a line headed by the entry shows the natural chain unless it says otherwise.", "UniProt Q5W0Z9": "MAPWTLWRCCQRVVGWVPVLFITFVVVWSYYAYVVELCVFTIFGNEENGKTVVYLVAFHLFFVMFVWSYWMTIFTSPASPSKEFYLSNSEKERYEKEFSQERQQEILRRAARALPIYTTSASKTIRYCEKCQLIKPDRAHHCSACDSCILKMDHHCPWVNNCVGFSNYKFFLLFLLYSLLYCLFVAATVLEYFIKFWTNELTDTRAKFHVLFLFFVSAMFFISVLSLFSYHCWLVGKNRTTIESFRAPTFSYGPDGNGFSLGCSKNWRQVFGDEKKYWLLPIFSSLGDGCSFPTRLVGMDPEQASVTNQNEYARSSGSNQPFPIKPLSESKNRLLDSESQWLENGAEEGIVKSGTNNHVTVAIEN", "UniProt Q9NYG2": "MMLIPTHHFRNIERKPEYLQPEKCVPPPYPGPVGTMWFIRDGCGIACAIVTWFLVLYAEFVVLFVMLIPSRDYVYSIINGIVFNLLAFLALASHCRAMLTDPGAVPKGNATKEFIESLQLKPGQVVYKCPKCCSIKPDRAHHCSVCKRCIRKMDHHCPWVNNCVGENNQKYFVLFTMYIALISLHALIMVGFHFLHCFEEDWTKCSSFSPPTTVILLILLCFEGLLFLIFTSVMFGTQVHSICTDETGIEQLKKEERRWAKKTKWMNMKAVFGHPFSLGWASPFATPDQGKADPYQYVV", "UniProt Q9ULJ3": "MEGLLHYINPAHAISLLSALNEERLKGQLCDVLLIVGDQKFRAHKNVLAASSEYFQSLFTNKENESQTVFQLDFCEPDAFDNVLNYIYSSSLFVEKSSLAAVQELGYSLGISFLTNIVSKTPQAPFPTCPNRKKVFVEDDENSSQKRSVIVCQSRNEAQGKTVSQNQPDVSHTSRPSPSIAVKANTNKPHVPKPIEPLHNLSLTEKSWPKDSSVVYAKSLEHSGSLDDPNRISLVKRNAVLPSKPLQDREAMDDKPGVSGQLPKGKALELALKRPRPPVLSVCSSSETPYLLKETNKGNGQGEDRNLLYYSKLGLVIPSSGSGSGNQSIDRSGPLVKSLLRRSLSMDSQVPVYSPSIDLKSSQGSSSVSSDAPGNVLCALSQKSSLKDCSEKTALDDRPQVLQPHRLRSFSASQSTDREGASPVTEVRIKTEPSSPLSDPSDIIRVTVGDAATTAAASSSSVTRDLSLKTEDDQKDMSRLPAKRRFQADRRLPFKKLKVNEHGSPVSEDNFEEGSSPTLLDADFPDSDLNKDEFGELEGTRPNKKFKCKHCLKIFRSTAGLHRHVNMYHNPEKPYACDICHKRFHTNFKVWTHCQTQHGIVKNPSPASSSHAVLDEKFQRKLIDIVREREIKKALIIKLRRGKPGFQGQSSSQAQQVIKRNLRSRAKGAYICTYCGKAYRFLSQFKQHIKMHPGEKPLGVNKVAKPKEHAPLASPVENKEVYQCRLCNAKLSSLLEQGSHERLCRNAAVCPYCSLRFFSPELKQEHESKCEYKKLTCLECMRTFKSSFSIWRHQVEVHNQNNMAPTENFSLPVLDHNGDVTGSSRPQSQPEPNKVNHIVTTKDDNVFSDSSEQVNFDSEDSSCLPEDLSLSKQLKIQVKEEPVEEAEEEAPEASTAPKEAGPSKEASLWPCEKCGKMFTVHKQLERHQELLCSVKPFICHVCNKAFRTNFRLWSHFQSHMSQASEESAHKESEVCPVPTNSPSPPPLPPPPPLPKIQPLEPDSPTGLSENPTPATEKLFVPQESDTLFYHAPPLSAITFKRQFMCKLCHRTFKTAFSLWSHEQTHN", "UniProt P27348": "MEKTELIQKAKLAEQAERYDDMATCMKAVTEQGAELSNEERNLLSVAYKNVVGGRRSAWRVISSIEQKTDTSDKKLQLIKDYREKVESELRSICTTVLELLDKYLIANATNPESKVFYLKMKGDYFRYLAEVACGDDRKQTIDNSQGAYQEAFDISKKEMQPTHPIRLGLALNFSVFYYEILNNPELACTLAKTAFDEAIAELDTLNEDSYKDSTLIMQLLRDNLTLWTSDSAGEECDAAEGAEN", "UniProt P62699": "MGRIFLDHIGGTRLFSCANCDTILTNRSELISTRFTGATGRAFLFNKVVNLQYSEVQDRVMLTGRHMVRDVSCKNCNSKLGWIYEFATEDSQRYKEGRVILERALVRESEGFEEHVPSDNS", "UniProt Q9HCC9": "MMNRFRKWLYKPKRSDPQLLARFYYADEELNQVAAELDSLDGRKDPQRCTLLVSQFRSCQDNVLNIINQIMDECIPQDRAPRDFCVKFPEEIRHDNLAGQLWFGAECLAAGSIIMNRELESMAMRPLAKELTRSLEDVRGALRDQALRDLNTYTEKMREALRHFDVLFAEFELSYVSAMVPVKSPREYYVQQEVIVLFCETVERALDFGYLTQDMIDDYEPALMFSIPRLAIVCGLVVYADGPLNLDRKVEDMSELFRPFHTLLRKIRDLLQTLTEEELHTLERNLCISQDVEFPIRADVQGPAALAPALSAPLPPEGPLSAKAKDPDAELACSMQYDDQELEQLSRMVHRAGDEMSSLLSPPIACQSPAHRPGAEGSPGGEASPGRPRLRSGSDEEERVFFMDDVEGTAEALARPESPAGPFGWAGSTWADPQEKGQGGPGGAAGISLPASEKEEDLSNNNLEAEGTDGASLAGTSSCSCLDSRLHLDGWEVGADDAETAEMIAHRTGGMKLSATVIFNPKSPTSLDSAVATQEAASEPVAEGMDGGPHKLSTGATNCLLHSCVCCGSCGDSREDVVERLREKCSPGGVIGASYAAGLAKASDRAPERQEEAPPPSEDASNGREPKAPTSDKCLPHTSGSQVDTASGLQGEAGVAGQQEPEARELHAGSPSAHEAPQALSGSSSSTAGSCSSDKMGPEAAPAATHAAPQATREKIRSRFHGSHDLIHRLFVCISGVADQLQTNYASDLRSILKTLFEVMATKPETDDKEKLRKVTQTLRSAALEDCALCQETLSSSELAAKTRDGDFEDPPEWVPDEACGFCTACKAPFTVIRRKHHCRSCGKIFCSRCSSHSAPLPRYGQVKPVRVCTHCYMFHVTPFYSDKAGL", "UniProt Q9HAV4": "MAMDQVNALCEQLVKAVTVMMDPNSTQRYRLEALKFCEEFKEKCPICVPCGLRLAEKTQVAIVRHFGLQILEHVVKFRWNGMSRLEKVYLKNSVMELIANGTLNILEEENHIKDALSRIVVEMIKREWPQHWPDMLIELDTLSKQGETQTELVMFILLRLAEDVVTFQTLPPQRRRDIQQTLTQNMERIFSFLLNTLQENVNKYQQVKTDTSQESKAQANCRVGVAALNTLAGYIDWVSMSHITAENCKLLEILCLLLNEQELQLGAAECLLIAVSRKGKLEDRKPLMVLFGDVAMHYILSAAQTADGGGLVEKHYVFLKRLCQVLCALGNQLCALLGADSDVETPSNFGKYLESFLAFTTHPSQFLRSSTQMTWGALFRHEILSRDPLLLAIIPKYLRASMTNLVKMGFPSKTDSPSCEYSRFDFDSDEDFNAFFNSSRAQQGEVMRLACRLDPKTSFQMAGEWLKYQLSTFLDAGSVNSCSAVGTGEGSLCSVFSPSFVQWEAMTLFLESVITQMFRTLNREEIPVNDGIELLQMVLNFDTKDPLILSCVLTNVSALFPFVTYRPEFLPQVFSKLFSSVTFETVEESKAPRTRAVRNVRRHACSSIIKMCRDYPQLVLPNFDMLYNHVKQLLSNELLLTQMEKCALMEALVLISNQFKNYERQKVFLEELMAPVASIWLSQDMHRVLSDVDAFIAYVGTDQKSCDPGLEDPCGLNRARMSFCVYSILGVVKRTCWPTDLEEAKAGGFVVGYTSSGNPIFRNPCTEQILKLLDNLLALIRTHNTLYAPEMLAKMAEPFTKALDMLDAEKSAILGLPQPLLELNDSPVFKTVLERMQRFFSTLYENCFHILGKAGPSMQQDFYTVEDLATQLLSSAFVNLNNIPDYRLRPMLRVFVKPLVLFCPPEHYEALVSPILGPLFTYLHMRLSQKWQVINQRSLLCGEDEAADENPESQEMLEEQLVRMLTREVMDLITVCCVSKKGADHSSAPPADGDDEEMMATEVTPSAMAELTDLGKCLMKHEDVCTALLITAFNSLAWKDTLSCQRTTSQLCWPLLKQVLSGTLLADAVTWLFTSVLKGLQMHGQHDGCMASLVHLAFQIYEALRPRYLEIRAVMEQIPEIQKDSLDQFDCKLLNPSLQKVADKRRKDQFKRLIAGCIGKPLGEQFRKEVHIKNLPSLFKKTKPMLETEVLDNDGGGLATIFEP", "UniProt O60293": "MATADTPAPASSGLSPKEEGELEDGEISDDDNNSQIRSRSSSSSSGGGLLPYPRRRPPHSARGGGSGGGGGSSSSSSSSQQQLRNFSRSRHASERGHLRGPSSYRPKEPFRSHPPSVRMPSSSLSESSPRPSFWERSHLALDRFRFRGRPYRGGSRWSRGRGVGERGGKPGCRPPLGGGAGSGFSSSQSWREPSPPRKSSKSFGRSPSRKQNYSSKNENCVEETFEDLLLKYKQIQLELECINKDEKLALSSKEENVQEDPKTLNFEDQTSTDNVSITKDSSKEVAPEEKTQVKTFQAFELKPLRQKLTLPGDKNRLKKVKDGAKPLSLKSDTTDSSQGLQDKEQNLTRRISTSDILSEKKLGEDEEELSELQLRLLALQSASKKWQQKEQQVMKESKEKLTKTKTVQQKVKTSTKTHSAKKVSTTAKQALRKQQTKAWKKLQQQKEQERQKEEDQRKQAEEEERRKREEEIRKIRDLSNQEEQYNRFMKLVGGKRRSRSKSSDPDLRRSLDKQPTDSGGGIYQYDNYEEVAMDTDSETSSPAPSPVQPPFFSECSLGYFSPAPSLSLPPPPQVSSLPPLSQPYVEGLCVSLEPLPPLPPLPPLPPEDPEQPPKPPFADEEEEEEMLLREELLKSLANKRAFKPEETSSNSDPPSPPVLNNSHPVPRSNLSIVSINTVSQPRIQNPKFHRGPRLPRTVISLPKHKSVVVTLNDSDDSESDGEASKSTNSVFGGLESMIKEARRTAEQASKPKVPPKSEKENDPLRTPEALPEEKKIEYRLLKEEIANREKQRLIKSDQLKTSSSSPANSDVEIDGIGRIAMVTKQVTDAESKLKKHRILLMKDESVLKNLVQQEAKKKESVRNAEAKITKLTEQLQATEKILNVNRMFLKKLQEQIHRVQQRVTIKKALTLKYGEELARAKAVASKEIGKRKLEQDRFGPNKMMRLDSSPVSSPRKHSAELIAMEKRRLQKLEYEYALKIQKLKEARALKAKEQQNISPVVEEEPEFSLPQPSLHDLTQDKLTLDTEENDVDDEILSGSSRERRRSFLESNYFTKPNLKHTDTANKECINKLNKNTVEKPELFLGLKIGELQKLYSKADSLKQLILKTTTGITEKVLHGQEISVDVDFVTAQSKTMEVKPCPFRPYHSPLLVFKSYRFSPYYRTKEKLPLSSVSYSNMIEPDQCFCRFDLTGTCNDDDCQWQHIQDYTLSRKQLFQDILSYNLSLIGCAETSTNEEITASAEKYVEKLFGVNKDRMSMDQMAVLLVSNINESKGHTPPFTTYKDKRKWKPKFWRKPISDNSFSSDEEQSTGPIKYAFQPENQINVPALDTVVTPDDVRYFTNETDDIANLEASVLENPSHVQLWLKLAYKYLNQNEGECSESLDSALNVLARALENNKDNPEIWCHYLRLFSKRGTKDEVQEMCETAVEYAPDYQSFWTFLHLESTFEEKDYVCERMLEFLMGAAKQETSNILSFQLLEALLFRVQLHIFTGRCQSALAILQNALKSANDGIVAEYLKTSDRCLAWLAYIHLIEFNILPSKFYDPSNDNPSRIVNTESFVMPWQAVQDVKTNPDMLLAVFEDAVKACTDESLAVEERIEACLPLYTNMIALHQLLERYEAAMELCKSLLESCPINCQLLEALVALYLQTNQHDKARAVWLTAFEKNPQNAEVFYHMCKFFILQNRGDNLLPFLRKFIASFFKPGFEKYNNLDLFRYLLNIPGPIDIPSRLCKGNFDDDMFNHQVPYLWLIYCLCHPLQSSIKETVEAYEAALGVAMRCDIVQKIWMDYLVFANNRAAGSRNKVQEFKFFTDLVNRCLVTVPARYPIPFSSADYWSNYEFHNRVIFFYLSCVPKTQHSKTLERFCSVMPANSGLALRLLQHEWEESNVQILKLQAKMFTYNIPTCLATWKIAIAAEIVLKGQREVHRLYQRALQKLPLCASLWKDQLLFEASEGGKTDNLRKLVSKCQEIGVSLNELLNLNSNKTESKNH", "UniProt Q5VVQ6": "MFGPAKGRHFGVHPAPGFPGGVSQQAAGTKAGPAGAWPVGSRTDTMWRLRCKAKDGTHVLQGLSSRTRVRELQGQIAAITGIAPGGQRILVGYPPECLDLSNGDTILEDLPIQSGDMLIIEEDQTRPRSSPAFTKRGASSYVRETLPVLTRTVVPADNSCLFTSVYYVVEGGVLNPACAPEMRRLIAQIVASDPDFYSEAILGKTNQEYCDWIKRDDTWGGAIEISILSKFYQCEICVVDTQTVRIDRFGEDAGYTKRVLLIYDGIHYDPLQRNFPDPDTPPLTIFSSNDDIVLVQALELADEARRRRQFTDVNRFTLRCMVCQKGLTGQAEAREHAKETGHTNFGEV"}, "source": "the supplement of paper PMC10849652", "note": "The other results are listed elsewhere or left out.", "data": [{"compound": "c1ccc([C@@H]2C[C@H]2NC2CCNCC2)cc1", "assay": "log2 fold change, soluble protein after heating vs DMSO (PISA); higher = thermal stabilisation; K562 lysate, 10 uM; active = over 0.2 and 3.5 SD of the protein, either way, in both replicates (recomputed)", "in_short": "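Pellets of K562 cells were dounce-homogenised in PBS pH 7.4 with 1 mM MgCl2, and the crude extract was held at 1 mg/mL protein for a 30 min treatment with 10 μM compound. Aliquots were heated for 3 min over 48°C-58°C and pooled before NP-40 was added to 0.5% at 4°C. The supernatant from 21,000xg for 90 min was quantified by TMTpro 16plex LC-MS/MS with channel sums equalised. Values are reported from duplicates as log-two fold change in thermal stability relative to solvent controls.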", "values": [{"target": "YIPF3 (UniProt Q9GZM5)", "log2 fold change": "inactive: -0.008"}, {"target": "ZFR (UniProt Q96KR1)", "log2 fold change": "inactive: -0.034"}, {"target": "ZC3H18 (UniProt E7ERS3)", "log2 fold change": "inactive: -0.064"}, {"target": "YTHDC1 (UniProt Q96MU7)", "log2 fold change": "inactive: -0.047"}, {"target": "ZDHHC20 (UniProt Q5W0Z9)", "log2 fold change": "inactive: -0.084"}, {"target": "XPO6 (UniProt Q96QU8)", "log2 fold change": "inactive: -0.045"}, {"target": "ZDHHC3 isoform 2 (UniProt Q9NYG2)", "log2 fold change": "inactive: 0.028"}, {"target": "ZC3HC1 (UniProt Q86WB0)", "log2 fold change": "inactive: 0.061"}, {"target": "ZCCHC3 (UniProt Q9NUD5)", "log2 fold change": "inactive: -0.005"}, {"target": "ZEB1 isoform 2 (UniProt P37275)", "log2 fold change": "inactive: -0.049"}, {"target": "ZBTB21 (UniProt Q9ULJ3)", "log2 fold change": "inactive: -0.046"}, {"target": "ZFAND5 (UniProt O76080)", "log2 fold change": "inactive: -0.172"}, {"target": "YWHAQ (UniProt P27348)", "log2 fold change": "inactive: 0.181"}, {"target": "ZBTB10 (UniProt Q96DT7)", "log2 fold change": "inactive: 0.084"}, {"target": "YIPF6 (UniProt Q96EC8)", "log2 fold change": "inactive: 0.037"}, {"target": "YES1 (UniProt P07947)", "log2 fold change": "inactive: 0"}, {"target": "YPEL5 (UniProt P62699)", "log2 fold change": "inactive: 0.098"}, {"target": "XXYLT1 (UniProt Q8NBI6)", "log2 fold change": "inactive: 0.012"}, {"target": "YWHAG (UniProt P61981)", "log2 fold change": "inactive: -0.034"}, {"target": "YBX1 (UniProt P67809)", "log2 fold change": "inactive: 0.037"}, {"target": "YKT6 (UniProt O15498)", "log2 fold change": "inactive: 0.036"}, {"target": "ZFP36L2 (UniProt P47974)", "log2 fold change": "inactive: -0.032"}, {"target": "XPNPEP3 (UniProt Q9NQH7)", "log2 fold change": "inactive: 0.011"}, {"target": "XRCC1 (UniProt P18887)", "log2 fold change": "inactive: 0.081"}, {"target": "YAE1 (UniProt Q9NRH1)", "log2 fold change": "inactive: -0.013"}, {"target": "XPO1 (UniProt O14980)", "log2 fold change": "inactive: 0.023"}, {"target": "ZFYVE19 (UniProt Q96K21)", "log2 fold change": "inactive: -0.183"}, {"target": "YIPF4 (UniProt Q9BSR8)", "log2 fold change": "inactive: 0.012"}, {"target": "ZFYVE28 (UniProt Q9HCC9)", "log2 fold change": "inactive: 0.059"}, {"target": "ZC2HC1A (UniProt Q96GY0)", "log2 fold change": "inactive: -0.058"}, {"target": "XPO5 (UniProt Q9HAV4)", "log2 fold change": "inactive: 0.032"}, {"target": "ZFC3H1 (UniProt O60293)", "log2 fold change": "inactive: 0.089"}, {"target": "XRCC6 (UniProt P12956)", "log2 fold change": "inactive: 0.014"}, {"target": "ZFYVE21 isoform 2 (UniProt Q9BQ24)", "log2 fold change": "inactive: -0.012"}, {"target": "YOD1 (UniProt Q5VVQ6)", "log2 fold change": "inactive: -0.024"}, {"target": "YTHDF2 (UniProt Q9Y5A9)", "log2 fold change": "inactive: 0.011"}]}]}
